Results as given in the supplement of paper PMC4604168 (melanoma cell lines).
Some of the results follow. Single values are uncertain, as repeats are few or missing.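 The apoptosis fraction was the count of cleaved-PARP antibody-stained nuclei relative to all DNA-stained nuclei, imaged in 1,536-well plates. Screening doses were set so most cells survived, and baseline and induced cleaved-PARP levels vary greatly across cell lines.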

system: SkMel28; assay: cleaved PARP positive nuclei fraction relative to DMSO control; melanoma cells; higher = more apoptosis; settings: library dose: low library concentration; 72 h

First: CC[C@]1(O)C[C@H]2CN(CCc3c([nH]c4ccccc34)[C@@](C(=O)OC)(c3cc4c(cc3OC)N(C=O)[C@H]3[C@@](O)(C(=O)OC)[C@H](OC(C)=O)[C@]5(CC)C=CCN6CC[C@]43[C@@H]65)C2)C1 [vincristine] + CO[C@H]1C[C@@H]2CC[C@@H](C)[C@@](O)(O2)C(=O)C(=O)N2CCCC[C@H]2C(=O)O[C@H]([C@H](C)C[C@@H]2CC[C@@H](OCCO)[C@H](OC)C2)CC(=O)[C@H](C)/C=C(\C)[C@@H](O)[C@@H](OC)C(=O)[C@H](C)C[C@H](C)/C=C/C=C/C=C/1C [everolimus] (first compound 0.0001 µM, partner dose 0.02 µM)
Second: Cc1cc(Nc2cc(N3CCN(C)CC3)nc(Sc3ccc(NC(=O)C4CC4)cc3)n2)n[nH]1 [Tozasertib] + O=C(O)c1ccc2c(c1)nc(Nc1cccc(Cl)c1)c1ccncc12 [CX4945] (first compound 0.006 µM, partner dose 0.4 µM)
The “cleaved PARP positive nuclei fraction” value of the first is higher: 747% for the first, 44.6% for the second.

Compared with `COc1cc([C@@H]2c3cc4c(cc3[C@@H](O[C@@H]3O[C@@H]5CO[C@@H](C)O[C@H]5[C@H](O)[C@H]3O)[C@H]3COC(=O)[C@H]23)OCO4)cc(OC)c1O` [etoposide] + CC1(C)CCC(c2ccc(Cl)cc2)=C(CN2CCN(c3ccc(C(=O)NS(=O)(=O)c4ccc(N[C@H](CCN5CCOCC5)CSc5ccccc5)c(S(=O)(=O)C(F)(F)F)c4)cc3)CC2)C1 [ABT263] (first compound 0.02 µM, partner dose 0.4 µM), `CC[C@]1(O)C[C@H]2CN(CCc3c([nH]c4ccccc34)[C@@](C(=O)OC)(c3cc4c(cc3OC)N(C=O)[C@H]3[C@@](O)(C(=O)OC)[C@H](OC(C)=O)[C@]5(CC)C=CCN6CC[C@]43[C@@H]65)C2)C1` [vincristine] + NC(=O)c1ccc(N(C(N)=O)c2c(F)cccc2F)nc1-c1ccc(F)cc1F [VX702] (first compound 0.0001 µM, partner dose 0.4 µM) is higher in “cleaved PARP positive nuclei fraction” value: 62.3% for the first, 69.8% for the second.

Compared with `Cc1ccc(Nc2nccc(N(C)c3ccc4c(C)n(C)nc4c3)n2)cc1S(N)(=O)=O` [Pazopanib] + C=CCNC1=C2C[C@@H](C)C[C@H](OC)[C@H](O)[C@@H](C)/C=C(\C)[C@H](OC(N)=O)[C@@H](OC)/C=C\C=C(/C)C(=O)NC(=CC1=O)C2=O [Tanespimycin] (first compound 0.4 µM, partner dose 0.002 µM), `Cc1cn(-c2cc(NC(=O)c3ccc(C)c(Nc4nccc(-c5cccnc5)n4)c3)cc(C(F)(F)F)c2)cn1` [nilotinib] + Cc1nc(Nc2ncc(C(=O)Nc3c(C)cccc3Cl)s2)cc(N2CCN(CCO)CC2)n1 [dasatanib] (first compound 0.2 µM, partner dose 0.004 µM) is higher in “cleaved PARP positive nuclei fraction” value: 113% for the first, 195% for the second.

First: O=C(Nc1cc(C(F)(F)F)cc(C(F)(F)F)c1)c1cc(Cl)ccc1O + Cn1c(=O)n(-c2ccc(C(C)(C)C#N)cc2)c2c3cc(-c4cnc5ccccc5c4)ccc3ncc21 [NVP-BEZ235] (first compound 0.016 µM, partner dose 0.004 µM)
Second: Cc1cn(-c2cc(NC(=O)c3ccc(C)c(Nc4nccc(-c5cccnc5)n4)c3)cc(C(F)(F)F)c2)cn1 [nilotinib] + Nc1nc(F)nc2c1ncn2[C@@H]1O[C@H](CO)[C@@H](O)[C@@H]1O [fludarabine] (first compound 0.2 µM, partner dose 0.2 µM)
The “cleaved PARP positive nuclei fraction” value of the first is lower: 73.5% for the first, 259% for the second.

Compared with `O=C(Nc1cc(C(F)(F)F)cc(C(F)(F)F)c1)c1cc(Cl)ccc1O` + CO[C@H]1C[C@@H]2CC[C@@H](C)[C@@](O)(O2)C(=O)C(=O)N2CCCC[C@H]2C(=O)O[C@H]([C@H](C)C[C@@H]2CC[C@@H](OCCO)[C@H](OC)C2)CC(=O)[C@H](C)/C=C(\C)[C@@H](O)[C@@H](OC)C(=O)[C@H](C)C[C@H](C)/C=C/C=C/C=C/1C [everolimus] (first compound 0.016 µM, partner dose 0.02 µM), `Cc1ccc(Nc2nccc(N(C)c3ccc4c(C)n(C)nc4c3)n2)cc1S(N)(=O)=O` [Pazopanib] + CO[C@H]1C[C@@H]2CC[C@@H](C)[C@@](O)(O2)C(=O)C(=O)N2CCCC[C@H]2C(=O)O[C@H]([C@H](C)C[C@@H]2CC[C@@H](OCCO)[C@H](OC)C2)CC(=O)[C@H](C)/C=C(\C)[C@@H](O)[C@@H](OC)C(=O)[C@H](C)C[C@H](C)/C=C/C=C/C=C/1C [everolimus] (first compound 0.4 µM, partner dose 0.02 µM) is lower in “cleaved PARP positive nuclei fraction” value: 285% for the first, 143% for the second.

First: Cc1cc(Nc2cc(N3CCN(C)CC3)nc(Sc3ccc(NC(=O)C4CC4)cc3)n2)n[nH]1 [Tozasertib] + Nc1cccc2c1CN(C1CCC(=O)NC1=O)C2=O [lenalidomide] (first compound 0.006 µM, partner dose 1 µM)
Second: Cc1ccc(Nc2nccc(N(C)c3ccc4c(C)n(C)nc4c3)n2)cc1S(N)(=O)=O [Pazopanib] + CCCS(=O)(=O)Nc1ccc(F)c(C(=O)c2c[nH]c3ncc(Cl)cc23)c1F [PLX4720] (first compound 0.4 µM, partner dose 0.08 µM)
The “cleaved PARP positive nuclei fraction” value of the first is lower: 45.6% for the first, 77.2% for the second.

Going from `O=C(Nc1cc(C(F)(F)F)cc(C(F)(F)F)c1)c1cc(Cl)ccc1O` + Cn1nnc2c(C(N)=O)ncn2c1=O [temozolomide] (first compound 0.016 µM, partner dose 2 µM) to `Cc1ccc(Nc2nccc(N(C)c3ccc4c(C)n(C)nc4c3)n2)cc1S(N)(=O)=O` [Pazopanib] + OCc1c[nH]c2ccccc12 [Indole-3-carbinol] (first compound 0.4 µM, partner dose 0.8 µM), the “cleaved PARP positive nuclei fraction” value falls from 87.5% to 72.9%.

Compared with `COc1cc([C@@H]2c3cc4c(cc3[C@@H](O[C@@H]3O[C@@H]5CO[C@@H](C)O[C@H]5[C@H](O)[C@H]3O)[C@H]3COC(=O)[C@H]23)OCO4)cc(OC)c1O` [etoposide] + Cn1sc(=O)n(Cc2ccccc2)c1=O [TDZD-8] (first compound 0.02 µM, partner dose 0.4 µM), `O=c1[nH]nc(Sc2ncc([N+](=O)[O-])s2)n1-c1ccc2c(c1)OCCO2` + CO[C@H]1C[C@@H]2CC[C@@H](C)[C@@](O)(O2)C(=O)C(=O)N2CCCC[C@H]2C(=O)O[C@H]([C@H](C)C[C@@H]2CC[C@@H](OCCO)[C@H](OC)C2)CC(=O)[C@H](C)/C=C(\C)[C@@H](O)[C@@H](OC)C(=O)[C@H](C)C[C@H](C)/C=C/C=C/C=C/1C [everolimus] (first compound 0.2 µM, partner dose 0.02 µM) is higher in “cleaved PARP positive nuclei fraction” value: 24.9% for the first, 161% for the second.

First: O=c1[nH]nc(Sc2ncc([N+](=O)[O-])s2)n1-c1ccc2c(c1)OCCO2 + Cn1nnc2c(C(N)=O)ncn2c1=O [temozolomide] (first compound 0.2 µM, partner dose 2 µM)
Second: Cc1cc(Nc2cc(N3CCN(C)CC3)nc(Sc3ccc(NC(=O)C4CC4)cc3)n2)n[nH]1 [Tozasertib] + C[C@@H](Oc1cc(-c2cnn(C3CCNCC3)c2)cnc1N)c1c(Cl)ccc(F)c1Cl [Crizotinib] (first compound 0.006 µM, partner dose 0.2 µM)
The “cleaved PARP positive nuclei fraction” value of the first is lower: 66.3% for the first, 75.9% for the second.

Compared with `O=c1[nH]nc(Sc2ncc([N+](=O)[O-])s2)n1-c1ccc2c(c1)OCCO2` + NC(=O)c1ccc(N(C(N)=O)c2c(F)cccc2F)nc1-c1ccc(F)cc1F [VX702] (first compound 0.2 µM, partner dose 0.4 µM), `Cc1ccc(Nc2nccc(N(C)c3ccc4c(C)n(C)nc4c3)n2)cc1S(N)(=O)=O` [Pazopanib] + Cn1nnc2c(C(N)=O)ncn2c1=O [temozolomide] (first compound 0.4 µM, partner dose 2 µM) is lower in “cleaved PARP positive nuclei fraction” value: 180% for the first, 85.1% for the second.

Going from `N#CC[C@H](C1CCCC1)n1cc(-c2ncnc3[nH]ccc23)cn1` [ruxolitinib] + OCc1c[nH]c2ccccc12 [Indole-3-carbinol] (first compound 1 µM, partner dose 0.8 µM) to `O=c1[nH]nc(Sc2ncc([N+](=O)[O-])s2)n1-c1ccc2c(c1)OCCO2` + CCCS(=O)(=O)Nc1ccc(F)c(C(=O)c2c[nH]c3ncc(Cl)cc23)c1F [PLX4720] (first compound 0.2 µM, partner dose 0.08 µM), the “cleaved PARP positive nuclei fraction” value rises from 27.1% to 96.2%.

Going from `COc1cc([C@@H]2c3cc4c(cc3[C@@H](O[C@@H]3O[C@@H]5CO[C@@H](C)O[C@H]5[C@H](O)[C@H]3O)[C@H]3COC(=O)[C@H]23)OCO4)cc(OC)c1O` [etoposide] + C[C@]1(O)C[C@@H](c2nc(-c3ccc4ccc(-c5ccccc5)nc4c3)c3c(N)nccn32)C1 [OSI906] (first compound 0.02 µM, partner dose 0.4 µM) to `Cc1ccc(Nc2nccc(N(C)c3ccc4c(C)n(C)nc4c3)n2)cc1S(N)(=O)=O` [Pazopanib] + CC(=O)c1c(C)c2cnc(Nc3ccc(N4CCNCC4)cn3)nc2n(C2CCCC2)c1=O [palbociclib] (first compound 0.4 µM, partner dose 0.04 µM), the “cleaved PARP positive nuclei fraction” value falls from 95.1% to 76.3%.

For `N#CC[C@H](C1CCCC1)n1cc(-c2ncnc3[nH]ccc23)cn1` [ruxolitinib] + CO[C@H]1C[C@@H]2CC[C@@H](C)[C@@](O)(O2)C(=O)C(=O)N2CCCC[C@H]2C(=O)O[C@H]([C@H](C)C[C@@H]2CC[C@@H](OCCO)[C@H](OC)C2)CC(=O)[C@H](C)/C=C(\C)[C@@H](O)[C@@H](OC)C(=O)[C@H](C)C[C@H](C)/C=C/C=C/C=C/1C [everolimus] (first compound 1 µM, partner dose 0.02 µM), the “cleaved PARP positive nuclei fraction” value was 55.7%.
